This is one part of the list.

By UniProt entry, the sequences of proteins in these tests, tags left out.
UniProt Q0JBA9, entry or part of it: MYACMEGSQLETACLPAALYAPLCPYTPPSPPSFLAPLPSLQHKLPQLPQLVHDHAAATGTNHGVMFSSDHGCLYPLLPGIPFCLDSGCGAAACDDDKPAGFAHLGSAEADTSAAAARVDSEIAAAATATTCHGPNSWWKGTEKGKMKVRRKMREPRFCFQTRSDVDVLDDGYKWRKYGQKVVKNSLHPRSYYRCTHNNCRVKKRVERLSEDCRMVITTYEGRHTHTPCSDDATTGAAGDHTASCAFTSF

The target in this assay is OsWRKY34 (Oryza sativa, UniProt Q0JBA9 1-250). Description: protein-binding microarray (RPBM); PBS, 2% BSA, 51.3 ng/ul salmon testes DNA, 50 uM zinc acetate, 200 nM TF, 25 C, 1 h; high values mean tight binding. The settings on record: protein: recombinant; tags: N-terminal polyhistidine and DsRed monomer fusion (pET32a); label: CyDye5-dUTP incorporated in the synthesized complementary strand; 3' TTTTT single-stranded linker to array surface; dsDNA, one strand shown. In short, it runs like this: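 The binding signal for each feature is its fluorescence intensity in arbitrary units. An Axon 4000B scanner was used to read a custom Agilent array that had been made double-stranded with Cy5-dUTP primer extension, blocked with 2% BSA, incubated at 25 °C for 1 h with 200 nM protein in PBS, 2% BSA, salmon testes DNA and 50 µM zinc acetate, and washed. The protein was an N-terminal polyhistidine–DsRed transcription factor fusion from E. coli BL21-CodonPlus, purified on Ni–NTA.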
As for “ATAAAGTGATTTTCGGTTGTGATGATGCGGTCTATATATACGGAGTCACCTAGTGCAG”, the binding signal is 8230 fluorescence intensity (a.u.).
To “GGGCTTGGGTTTGTGCTGGTCCATACTTATGGGCTTAATACGGAGTCACCTAGTGCAG” belongs 10400 fluorescence intensity (a.u.); to “TTCATTGTCATTGTGTGCCTGTGCTGTAAAAGTTGATTATCGGAGTCACCTAGTGCAG”, 11000 fluorescence intensity (a.u.).
To “AAAATTTTCCTTTTTTCTCCTCTCTTCTCACCGGTTCACCCGGAGTCACCTAGTGCAG” belongs 9440 fluorescence intensity (a.u.).
As to “GTCAAAGCAGCTGACAAGAAGAGGTGCCGTTGACCCCACCCGGAGTCACCTAGTGCAG”, the binding signal is 8990 fluorescence intensity (a.u.).
To “CTGAGTTCCTTTGCTACTTGCCTCCTTGCTGCGCTTCTCGCGGAGTCACCTAGTGCAG” belongs 14000 fluorescence intensity (a.u.); to “AGAGCATACATTTACACATGAGGGAGGGAGGGCCATCGATCGGAGTCACCTAGTGCAG”, 9340 fluorescence intensity (a.u.); to “AATCAGATCTTTAAGCACAGCCTTTGATGCCAACTTTTTCCGGAGTCACCTAGTGCAG”, 8680 fluorescence intensity (a.u.).
For “CTTCAGTGGGATCAGGGATGTACCGCTGGTTTTTATTTCTCGGAGTCACCTAGTGCAG”, the binding signal was 9300 fluorescence intensity (a.u.).
In the case of “GCTCCCTTTTTATGCACTGCCGCACCATCTCTTTTCTCCTCGGAGTCACCTAGTGCAG”, the binding signal is 9360 fluorescence intensity (a.u.).
The same measure for “GATATACTATCCTCCAATGAGTCATCCTGTTTCACTGCTACGGAGTCACCTAGTGCAG”: 9960 fluorescence intensity (a.u.); for “ACTCCCGAAGGCAATTCCAACCACCGCATTATGCCACACACGGAGTCACCTAGTGCAG”: 9160 fluorescence intensity (a.u.); for “ATCAGCATTTCGCCTTTCGTCGTCGTCGTCATCATCCACTCGGAGTCACCTAGTGCAG”: 11400 fluorescence intensity (a.u.).
As to “TATTTTTCATGCAGATCTTTTGAGGGGTCAGCCACTCTTTCGGAGTCACCTAGTGCAG”, the binding signal is 8760 fluorescence intensity (a.u.).
The same measure for “ACCAGTTAATGTACATTTGCAATTATATTTTGTTATTTTTCGGAGTCACCTAGTGCAG”: 8230 fluorescence intensity (a.u.); for “GTCCCATGTCTCACACGCTCAGCATGAGGCGCCTCACACGCGGAGTCACCTAGTGCAG”: 9180 fluorescence intensity (a.u.).
To “TGGTAGATCCGCTGGTCTCTCTCTTTCACTGCGCGCCTCTCGGAGTCACCTAGTGCAG” belongs 8540 fluorescence intensity (a.u.); to “GCCATTGCTACAGCTCTGCTACATCTCTGGGTCGTGCGTCCGGAGTCACCTAGTGCAG”, 8190 fluorescence intensity (a.u.); to “TTTCAAGCAATCCATATTCCGTCCGTCAGCTACTGCTAGTCGGAGTCACCTAGTGCAG”, 9620 fluorescence intensity (a.u.).
Take “TTGATGCGCCTCCCTATGGTAGCTGCCTCTGTTTTCTTTTCGGAGTCACCTAGTGCAG”: the binding signal was 8780 fluorescence intensity (a.u.).
“TCAAACATTTAAAAAAAAAGTCAACGGCGTCAAATATTTTCGGAGTCACCTAGTGCAG”: the binding signal was 8470 fluorescence intensity (a.u.).
As to “TTTGTAACCATTAATATTTTTTTCTCAAATACTTAGTTTTCGGAGTCACCTAGTGCAG”, the binding signal is 8190 fluorescence intensity (a.u.).
The same measure for “ATATTTGGTAGATAATCGATTTTTTTTTCTTCTTCTCCAACGGAGTCACCTAGTGCAG”: 10600 fluorescence intensity (a.u.); for “CACGGTGCCCAGCCAAACACCTCCACCTCCACATCTCTCTCGGAGTCACCTAGTGCAG”: 8520 fluorescence intensity (a.u.); for “ACTTTACCTAATACATCACCCGTTTCAAACTTTAAGCGTTCGGAGTCACCTAGTGCAG”: 10500 fluorescence intensity (a.u.).
To “CCAGCGACTTTGACCATACATTTGTTTTCTACTTAATTGACGGAGTCACCTAGTGCAG” belongs 9610 fluorescence intensity (a.u.); to “ACCAAAATCTCTCATCCTTGCCACCACAGTGACCACTCCGCGGAGTCACCTAGTGCAG”, 10700 fluorescence intensity (a.u.); to “GCCTACCCGCCGGAATCTTGCGTCATCTGGCGGCCGCCGCCGGAGTCACCTAGTGCAG”, 8180 fluorescence intensity (a.u.).
To “GCCCCACTATTCCCACCCGCACGAGACAGACAGGTGGGCCCGGAGTCACCTAGTGCAG” belongs 8790 fluorescence intensity (a.u.).
With “CCCGCGGCGGCGGGGTGGAGGCGACGGCGGTGGTGGTGGGCGGAGTCACCTAGTGCAG”, the binding signal is 8590 fluorescence intensity (a.u.).
The same measure for “AGAATGCTACGTTAGCGAAACCACCCATATATATTGCCATCGGAGTCACCTAGTGCAG”: 8160 fluorescence intensity (a.u.).
The same measure for “GATCGCTTCCATTTTTACTCAACCAGCCGCTGCCCGTTGGCGGAGTCACCTAGTGCAG”: 8640 fluorescence intensity (a.u.).
Take “CTTGCAGCTCGTCGTCGTCGTCGTTGATCTTTGGCTATATCGGAGTCACCTAGTGCAG”: the binding signal was 10600 fluorescence intensity (a.u.).
To “CCCGCCCGTGTAAGCATCCACCGCCTCGCCTGCGCGGTTCCGGAGTCACCTAGTGCAG” belongs 10900 fluorescence intensity (a.u.); to “ATGTGAGGTATTCTGTGGTGTATTGTGCAAGACTATGATGCGGAGTCACCTAGTGCAG”, 8300 fluorescence intensity (a.u.).
To “TCCTTTGCATGTTCCATTTCACTTGTACCATGATTTTTTTCGGAGTCACCTAGTGCAG” belongs 12600 fluorescence intensity (a.u.).
The same measure for “TTCCTCGCTACTAGCCTACTACCACCTTAAAATGGCCCACCGGAGTCACCTAGTGCAG”: 8430 fluorescence intensity (a.u.); for “ATCGCGCGCTCGTTCTCGCACGCACGCGGCGAGCGCTCGCCGGAGTCACCTAGTGCAG”: 8410 fluorescence intensity (a.u.); for “TCCCACATTTAATTCCCCATACATGTGTCCAAACATTTAACGGAGTCACCTAGTGCAG”: 8100 fluorescence intensity (a.u.).
As to “AACCCCGACCCGACCCGCAAACACACAATCTGCTTTCTCCCGGAGTCACCTAGTGCAG”, the binding signal is 8460 fluorescence intensity (a.u.).
To “TTGCTGTGCTGTATGTATGTGTGTGCATGATTTTGTCGTTCGGAGTCACCTAGTGCAG” belongs 10900 fluorescence intensity (a.u.); to “CTCTGGTTGTCTTTCCTTATCCGGAACTCTCACCATATCTCGGAGTCACCTAGTGCAG”, 11400 fluorescence intensity (a.u.).

Source of the values: paper PMC7819943, “Rice protein-binding microarrays: a tool to detect cis-acting elements near promoter regions in rice”.
